Experimental findings from paper PMC13501995 are described below.

Protein sequences, listed by entry. Tags and fused reporters are not part of them.
UniProt Q9H6L5: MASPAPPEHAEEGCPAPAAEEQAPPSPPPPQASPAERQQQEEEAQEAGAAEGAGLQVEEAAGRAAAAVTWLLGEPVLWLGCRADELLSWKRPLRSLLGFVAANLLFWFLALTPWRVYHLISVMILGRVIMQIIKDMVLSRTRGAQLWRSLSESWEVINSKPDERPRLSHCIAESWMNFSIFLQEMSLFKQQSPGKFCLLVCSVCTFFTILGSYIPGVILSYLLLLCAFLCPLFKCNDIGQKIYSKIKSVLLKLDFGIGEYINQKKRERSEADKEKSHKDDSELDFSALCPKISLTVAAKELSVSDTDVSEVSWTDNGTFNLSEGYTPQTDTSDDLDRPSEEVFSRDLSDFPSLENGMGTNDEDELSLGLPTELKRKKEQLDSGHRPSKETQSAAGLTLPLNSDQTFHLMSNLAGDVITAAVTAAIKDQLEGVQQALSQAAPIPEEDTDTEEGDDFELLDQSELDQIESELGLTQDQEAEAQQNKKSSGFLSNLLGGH

No constants are given. Whether binding was seen depends on the method and setting. Some binding calls cover weakened binding; strength is not graded here.

Test [1] deals with S-protein-FLAG-streptavidin binding peptide (SFB)-RETREG1, purified from HEK293T cells (UniProt Q9H6L5). Description: native gel or EMSA; blue native PAGE (4-12% gradient) of purified SFB-RETREG1 incubated with S-LPS or lipid A at 37°C for 2 h; immunoblot with anti-FLAG; both purified. (In EMSA bound probe runs differently from free probe, usually more slowly.)
Test [2] deals with SFB-RETREG1 purified from infected HeLa cells (UniProt Q9H6L5). In words: native gel or EMSA; both purified.

For “S-protein-FLAG-streptavidin binding peptide (SFB)-RETREG1, purified from HEK293T cells (from UniProt Q9H6L5 1-497)”, the binding result in test [1] was “binds”.
As to “SFB-RETREG1 purified from infected HeLa cells (from UniProt Q9H6L5 1-497)”, the binding entry in test [2] is on record as “binds”.
